Measurements reported in patent US8778975B2, “Helicobacter pylori eradicating agent having inhibitory activity on gastric acid secretion” (Link Geonomics, Inc., priority 2006, dated 2014).
At least one structure is not confirmed: it was looked up by name or label, or the drawing left a doubt.

Assay: Stability test in acidic hydrochloric acid solution (pH 2), residual ratio by HPLC
Type: physicochemical
Conditions: pH 2 HCl, 37° C.
Method: A test for the stability of thioether compounds (hereinafter, referred to SH-form) and sulfoxide compounds (hereinafter, referred to SO-form) at pH 2.0 was carried out. (Method) Each of the specimens produced in Examples 1 to 3 and Reference Examples 6 to 8 (sulfinyl products of Examples 1 to 3) was maintained in a solution adjusted to pH 2 with 0.5 or 1.0 mmol/L HCl (37° C.) for a predetermined time period. Subsequently, the solution was adjusted to pH 8 with triethylamine, and then an HPLC analysis was performed to calculate the residual ratio.

Structure (SMILES) | Residual ratio at pH 2 (0 min) | Residual ratio at pH 2 (30 min) | Residual ratio at pH 2 (2 hours)
COc1ccc2[nH]c([S+]([O-])Cc3ncc(C)c(OC)c3C)nc2c1 (stereo not drawn) [OMZ, Omeprazole] | 100% | 0% | 0%
COCCCOc1ccnc(C[S+]([O-])c2nc3ccccc3[nH]2)c1C (stereo not drawn) [RAZ, Rabeprazole] | 100% | 0% | 0%
